# PubChem BioAssay AID1439 (NMMLSC, 2008)
# Protein sequences, listed by entry. Tags and fused reporters are not part of them.
# UniProt P09471, whole entry, looked up: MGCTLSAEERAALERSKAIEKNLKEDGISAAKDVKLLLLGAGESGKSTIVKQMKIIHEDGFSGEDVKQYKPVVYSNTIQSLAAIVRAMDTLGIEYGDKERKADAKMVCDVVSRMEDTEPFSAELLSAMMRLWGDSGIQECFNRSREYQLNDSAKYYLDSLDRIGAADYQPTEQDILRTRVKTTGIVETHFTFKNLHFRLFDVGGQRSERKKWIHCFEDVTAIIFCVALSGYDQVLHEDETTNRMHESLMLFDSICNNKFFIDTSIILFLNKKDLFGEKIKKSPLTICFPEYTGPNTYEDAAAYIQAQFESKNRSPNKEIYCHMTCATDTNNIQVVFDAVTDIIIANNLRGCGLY
# The whole screen tested about 220,000 compounds, of which about 770 (0.35%) were called active. Inconclusive means that the source gave no clear call. Such entries were picked first, then a sample of the others. No stated cut-off is given here; in the data, active means binding response below about 49% or above about 150%; inconclusive means no clear call, values can overlap the other calls; inactive means in between.
# Biological target: Guanine nucleotide-binding protein G(o) subunit alpha (Homo sapiens) (UniProt P09471)
# Test: RGS7-Galphao binding modulators, primary screen, biochemical, multiplexed bead flow cytometry (AID 1439);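 further: fluorescent Galphao held in activated GDP-AlF4 state binding bead-coupled RGS7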
# Settings: at 10 µM, actives lie on both sides
row,Structure (SMILES),binding response (% of control)
1,O=C(Nc1cccc(C(=O)O)c1)Nc1ccccc1Cl,inconclusive: 104%
2,CCC(CO)[n+]1c(C)cc(/C=C2\Sc3ccccc3N2Cc2ccccc2)cc1C (stereo unspecified),inactive: 124%
3,COC(=O)/C=C1\OC(c2ccccc2)=CC1=O,inactive: 93.2%
4,COc1ccc(C(=O)[C@H]2[C@H]3C(=O)N(c4ccc(C)cc4)C(=O)[C@H]3C3C=CC=NN32)cc1 (stereo partly specified),inconclusive: 71.3%
5,FC(F)(F)c1cc(Oc2ccccc2)ncc1-c1nnc(-c2ccccc2Cl)o1,inconclusive: 148%
6,Cc1cnc(C(=O)N2CCCC(C(=O)c3ccc(Cl)cc3C)C2)cn1 (stereo unspecified),inactive: 121%
7,O=C(Cc1ccccc1)NCC(=O)OCC(=O)c1ccccc1Cl,inconclusive: 94.8%
8,O=C(CCC(=O)Nc1ccc(Cl)cc1Cl)N/N=C/c1ccc([N+](=O)[O-])o1,inconclusive: 111%
9,Cc1cc(NC(=O)CSc2nc3c(c(=O)n2Cc2ccccc2)SC(C)C3)no1 (stereo unspecified),inconclusive: 99.4%
10,CCC(C)c1ccccc1NC(=O)COC(=O)C1=COCCO1 (stereo unspecified),inconclusive: 89.9%
11,CCN(CC)S(=O)(=O)c1ccc(Cl)c(NC(=O)c2cc(Cl)cc(Cl)c2)c1,inactive: 103%
12,COc1ccc(NC(=S)N2CCN(c3ncccn3)CC2)c(OC)c1,inconclusive: 89.6%
13,Cc1cc2cc3c(cc2nc1SCC(=O)Nc1nc(C)c(C)s1)OCO3,inactive: 121%
14,COc1cc(NC(=O)c2csc(-c3ccncc3)n2)cc(C(=O)Nc2cccc(C(F)(F)F)c2)c1,inconclusive: 110%
15,CC(=Nc1ccc(Br)cc1)c1sc2ccccc2c1O,inconclusive: 26.8%
16,CC(CCn1cccn1)NC(=O)CCc1nnc(C2CCCCC2)o1 (stereo unspecified),inactive: 103%
17,COc1ccc(OC)c(Nc2nc(-c3ccccc3O)nc3ccccc23)c1,inconclusive: 107%
18,CC(=O)Nc1ccc(OCC(O)Cn2nc(C)c(C(C)=O)c2C)cc1 (stereo unspecified),inactive: 149%
19,CCOC(=O)N1CCN(C(=S)NC(=O)c2c(-c3c(Cl)cccc3Cl)noc2C)CC1,inconclusive: 80.6%
20,O=C(O)CNS(=O)(=O)Cc1ccccc1,inconclusive: 122%
21,C=CCn1c(SCC(=C)C)nc2c1c(=O)[nH]c(=O)n2C,inconclusive: 24.4%
22,CCOCCCNC(=O)CSc1ccccc1,inactive: 104%
23,CCOC(=O)c1nnn(-c2ccc([N+](=O)[O-])cc2[N+](=O)[O-])c1C,inactive: 97.7%

row,Structure (SMILES),binding response (% of control)
1,O=c1[nH]c(=S)c2ncn(-c3ccccc3)c2[nH]1,inconclusive: 32%
2,COc1ccc(-c2cc3ccccc3[nH]2)cc1,inconclusive: 121%
3,CNc1nc2cccnc2s1,inconclusive: 49.5%
4,Cc1cccc(NC(=O)c2cnn3ccccc23)c1C,inconclusive: 183%
5,O=C(Nc1ccc(F)cc1)C(Cc1ccccc1)n1cccc1 (stereo unspecified),inconclusive: 53%
6,CCn1c(=O)cc(N2CCOCC2)[nH]c1=O,inactive: 101%
7,CC1(C)Cc2c(sc(/N=C/N3CCCCCC3)c2C#N)C(C)(C)N1,inconclusive: 78.6%
8,O=C(Nc1ccccc1C(=O)Nc1nnc(C(F)(F)F)s1)c1ccccc1,inconclusive: 117%
9,O=S(=O)(Nc1ccccc1N1CCCCC1)c1cccs1,inconclusive: 73.5%
10,Cc1ccc(NC(=S)Nc2cc(C)on2)cc1,inconclusive: 91.8%
11,CCCCN1Cc2c(nc3cc(-c4ccco4)[nH]n3c2=O)C1=O,inconclusive: 129%
12,O=C(C[n+]1ccc2c(c1)nnn2-c1ccccc1)c1ccc(Cl)cc1,inconclusive: 89.7%
13,COc1ccccc1NC(=O)/C(=N/OCc1ccc(C#N)cc1)C(C)=O,inconclusive: 176%
14,O=S1(=O)CCC(n2ncc3c2/C(=C/c2ccccc2)CC3)C1 (stereo unspecified),inconclusive: 109%
15,CCC(C)NC(=O)C1c2ccccc2C(=O)N1Cc1ccc(OC)cc1OC (stereo unspecified),inactive: 127%
16,CCCCn1c(=O)[nH]c(=O)c2c1nc(-c1ccccc1F)n2Cc1ccccc1,inconclusive: 108%
17,Cc1noc2ncnc(Oc3ccc(Cl)cc3Cl)c12,inactive: 108%
18,Cc1cccc(C(=O)N[C@H](C(=O)Nc2ccc(S(=O)(=O)NC3=NCCCCC3)cc2)C(C)C)c1,inconclusive: 95.9%
19,COc1cc(/C=C(\C#N)C(=O)Nc2ccc3c(c2)OCCO3)ccc1O,inconclusive: 98%
20,Cc1ccc(N=Cc2c(O)n(-c3nccs3)c(=O)c3ccccc23)cc1,inactive: 104%
21,O=C(Nc1cccc(Cl)c1)Nc1cccc(C(=O)O)c1,inconclusive: 70.6%
22,Cn1c(=O)n(CC(=O)O)c(=O)c2c1nc1n2CCS1,inconclusive: 91.5%
23,CC(C)Sc1sc(C(=O)O)c(-c2ccc(Cl)cc2)c1C#N,inconclusive: 93.8%

row,Structure (SMILES),binding response (% of control)
1,COc1ccc(Br)cc1/C=N/NC(=O)CN1CCN(Cc2ccccc2)CC1,inconclusive: 18.5%
2,CC1=Nc2ccccc2N=C(NC(=O)c2ccccc2)C1c1ccccc1 (stereo unspecified),inconclusive: 132%
3,COc1ccc2[nH]cc(C(O)CN3CCN(c4ccccc4F)CC3)c2c1 (stereo unspecified),inconclusive: 113%
4,COc1ccc2cc3c(N)nn(C(=O)Cc4c[nH]c5ccccc45)c3nc2c1,inconclusive: 101%
5,CCOc1ccc(C(=O)NCC(=O)N2CCc3ccccc3C2)cc1OCC,inactive: 101%
6,COc1ccccc1NC(=O)c1ccc(-n2cccn2)nc1,inactive: 98.7%
7,Cc1cc(CO)nn1-c1ccc([N+](=O)[O-])cc1,inconclusive: 98%
8,NS(=O)(=O)c1ccc(NC(=O)Nc2ccc(C(F)(F)F)cc2)cc1,inconclusive: 98.1%
9,O=C(CSc1nnc(Cc2cccs2)n1-c1ccc(Cl)cc1)NCc1ccc2c(c1)OCO2,inactive: 99.1%
10,CC1(C)CC(=O)C(Sc2ccccc2)=C(O)C1,inconclusive: 192%
11,Nc1ccc(S(=O)(=O)Nc2nc(-c3ccccc3)cc(-c3ccccc3)n2)cc1,inconclusive: 32.1%
12,COc1ccc(C(CCNCc2ccc(OC(C)C)cc2)C(C)C)cc1 (stereo unspecified),inconclusive: 773%
13,Cc1ccccc1C1CCCN(Cc2nc(CC3CC3)no2)C1 (stereo unspecified),inactive: 93.3%
14,Cc1nn2c(NCCCN(C)C)c3c(nc2c1-c1ccccc1)CCCC3,inconclusive: -106%
15,O=C(Nc1ccc2ccccc2c1)c1onc2c1CCCC2,inactive: 126%
16,CCCn1nc(C(=O)OCC(=O)c2c(N)n(C)c(=O)n(C)c2=O)c2ccccc2c1=O,inactive: 94.1%
17,CC1CN(CC(=O)Nc2cc(S(=O)(=O)N3CCCC3)ccc2Cl)CC(C)O1 (stereo unspecified),inconclusive: 110%
18,Nc1nc2c(Cl)ccc(Cl)c2s1,inactive: 106%
19,CN(C)S(=O)(=O)N(CC(=O)N1CCN(Cc2ccccc2)CC1)c1ccccc1,inconclusive: -53.5%
20,Cc1ccc(-c2c[n+](Cc3ccc(Cl)cc3)c3n2CCC3)cc1,inconclusive: 75.8%
21,CCCC(=O)Nc1ccc(C(=O)Nc2ccc([N+](=O)[O-])cc2OC)cc1,inconclusive: 95.3%
22,CC(C)CC(=O)NNC(=O)C(C)C,inactive: 101%
23,NC(=O)N/N=C/C=C/c1ccc(F)cc1,inconclusive: 33.9%

row,Structure (SMILES),binding response (% of control)
1,COCCCn1c(SCC(=O)NC(C)(C)C)nnc1-c1cccs1,inconclusive: 91.1%
2,COc1ccccc1C/C(N)=N/OC(=O)c1ccco1,inactive: 92.6%
3,CCN1C(=O)S/C(=C/c2ccc(Sc3nc4ccccc4[nH]3)o2)C1=O,inactive: 101%
4,C#CCOCCOCCOCCNc1nc(N2CCN(C(=O)[C@H](CCC(=O)O)n3cc(C(N)CO)nn3)CC2)nc(N2CCN(C(=O)[C@H](CCC(=O)O)n3cc(C(N)CO)nn3)CC2)n1 (stereo partly specified),inconclusive: 104%
5,Cc1ccc(NS(=O)(=O)c2cccc(C(=O)OCC(=O)NCc3ccco3)c2)cc1,inactive: 148%
6,COc1cc(OC)cc(C(=O)OCCNC(=O)Cn2cnc3c2c(=O)n(C)c(=O)n3C)c1,inconclusive: 111%
7,COc1ccc(NC(=O)Cn2ccc3c(OC)cccc3c2=O)cc1,inconclusive: 90.7%
8,CC1CCCC(n2c(=S)[nH]c3ccccc3c2=O)C1C (stereo unspecified),inactive: 103%
9,Cc1ccc2nc(SCC(=O)c3c[nH]c4ccccc34)[nH]c2c1,inconclusive: 133%
10,Cc1nn(-c2cccc(C(F)(F)F)c2)c(=O)c2noc(C)c12,inconclusive: 235%
11,COc1ccc(/C=C2\SC(=NCc3ccccc3)N(Cc3ccccc3)C2=O)cc1OC,inactive: 121%
12,Fc1ccc(CNCCC(Cc2ccccc2)c2ccco2)cc1 (stereo unspecified),inconclusive: 348%
13,Clc1ccc(C2CC(c3cccs3)n3ncnc3N2)cc1Cl (stereo unspecified),inactive: 99.3%
14,Cc1cc(O)c(-c2cc(C(=O)Nc3cccnc3)[nH]n2)cc1C,inconclusive: 289%
15,COc1cccc(N/C(=N/C(=S)Nc2ccc(C)cc2C)Nc2nc(C)cc(C)n2)c1,inconclusive: 86.7%
16,CC1CC(NC(=O)c2cnc3n(c2=O)CCS3)CC(C)(C)C1 (stereo unspecified),inconclusive: 108%
17,COc1ccc(-c2ccc3c(N)c(C(=O)NC(C)C)sc3n2)cc1OC,inconclusive: 71.2%
18,Cc1ccc(Cl)cc1N1CCN(C(=O)C2CCN(S(C)(=O)=O)CC2)CC1,inconclusive: 91.5%
19,CCC(=O)N(Cc1ccco1)Cc1cc2cccc(C)c2n2nnnc12,inactive: 95.5%
20,O=C(Cn1cc(C(F)(F)F)ccc1=O)N/N=C/c1ccccc1O,inconclusive: 117%
21,O=C1C(=Nc2cccc(Cl)c2)CC(c2ccc(Cl)cc2)N1c1cccc(Cl)c1 (stereo unspecified),inconclusive: 100%
22,CCOc1ncccc1C(=O)OCC(=O)c1cc(OC)c(OC)c(OC)c1,inconclusive: 76%

# Fetched by compound from the entries so far:
row,Structure (SMILES),binding response (% of control)
2,COc1ccccc1C/C(N)=N/OC(=O)c1ccco1,inactive: 92.6%
17,COc1ccc(-c2ccc3c(N)c(C(=O)NC(C)C)sc3n2)cc1OC,inconclusive: 71.2%
22,CCOc1ncccc1C(=O)OCC(=O)c1cc(OC)c(OC)c(OC)c1,inconclusive: 76%
7,COc1ccc(NC(=O)Cn2ccc3c(OC)cccc3c2=O)cc1,inconclusive: 90.7%
